Laboratory results taken from the supplement of paper PMC8728848.
Some of the results follow.

How the values were obtained:
Test in all cases: glycan array binding signal (z-score within array); higher = stronger binding
Details in all cases: glycan notation: IUPAC condensed, linker removed
[1] = biological target: Neu5Ac(a2-3)Gal6S(b1-4)[Fuc(a1-3)]GlcNAc
How it was run: (§1)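 Glycan array binding is given as a within-array Z-score, which can be read as non-binding when negative. The arrays, 3228 of them, came from the Consortium for Functional Glycomics database and were retained only where the protein sequence was available. Z-scores were averaged across arrays of the same protein sequence at different concentrations or buffers and across linkers.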

Neu5Ac(a2-3)GalNAc = biological target: Neu5Ac(a2-3)GalNAc
How it was run: as §1

[2] = biological target: Neu5Ac(a2-3)GalNAc(b1-4)GlcNAc
How it was run: as §1

[3] = biological target: Neu5Ac(a2-3)[GalNAc(b1-4)]Gal(b1-4)Glc
How it was run: as §1

[4] = biological target: Neu5Ac(a2-3)[GalNAc(b1-4)]Gal(b1-4)GlcNAc
How it was run: as §1

[5] = biological target: Neu5Ac(a2-3)[GalNAc(b1-4)]Gal(b1-4)GlcNAc(b1-3)GalNAc
How it was run: as §1

[6] = biological target: Neu5Ac(a2-3)[Neu5Ac(a2-6)]GalNAc
How it was run: as §1

Neu5Ac(a2-6)Gal = biological target: Neu5Ac(a2-6)Gal
How it was run: as §1

[7] = biological target: Neu5Ac(a2-6)Gal(b1-3)GlcNAc(b1-3)[Gal(b1-4)GlcNAc(b1-6)]Gal(b1-4)Glc
How it was run: as §1

Neu5Ac(a2-6)Gal(b1-4)Glc = biological target: Neu5Ac(a2-6)Gal(b1-4)Glc
How it was run: as §1

[8] = biological target: Neu5Ac(a2-6)Gal(b1-4)GlcNAc
How it was run: as §1

[9] = biological target: Neu5Ac(a2-6)Gal(b1-4)GlcNAc(b1-2)Man
How it was run: as §1

[10] = biological target: Neu5Ac(a2-6)Gal(b1-4)GlcNAc(b1-2)Man(a1-3)Man(b1-4)GlcNAc(b1-4)GlcNAc
How it was run: as §1

[11] = biological target: Neu5Ac(a2-6)Gal(b1-4)GlcNAc(b1-2)Man(a1-3)[Gal(b1-4)GlcNAc(b1-2)Man(a1-6)]Man(b1-4)GlcNAc(b1-4)GlcNAc
How it was run: as §1

[12] = biological target: Neu5Ac(a2-6)Gal(b1-4)GlcNAc(b1-2)Man(a1-3)[GlcNAc(b1-2)Man(a1-6)]Man(b1-4)GlcNAc(b1-4)GlcNAc
How it was run: as §1

[13] = biological target: Neu5Ac(a2-6)Gal(b1-4)GlcNAc(b1-2)Man(a1-3)[GlcNAc(b1-4)][Neu5Ac(a2-6)Gal(b1-4)GlcNAc(b1-2)Man(a1-6)]Man(b1-4)GlcNAc(b1-4)GlcNAc
How it was run: as §1

[14] = biological target: Neu5Ac(a2-6)Gal(b1-4)GlcNAc(b1-2)Man(a1-3)[Man(a1-6)]Man(b1-4)GlcNAc(b1-4)GlcNAc
How it was run: as §1

[15] = biological target: Neu5Ac(a2-6)Gal(b1-4)GlcNAc(b1-2)Man(a1-3)[Neu5Ac(a2-3)Gal(b1-4)GlcNAc(b1-2)Man(a1-6)]Man(b1-4)GlcNAc(b1-4)GlcNAc
How it was run: as §1

[16] = biological target: Neu5Ac(a2-6)Gal(b1-4)GlcNAc(b1-2)Man(a1-3)[Neu5Ac(a2-6)Gal(b1-4)GlcNAc(b1-2)Man(a1-6)]Man(b1-4)GlcNAc(b1-4)GlcNAc
How it was run: as §1

[17] = biological target: Neu5Ac(a2-6)Gal(b1-4)GlcNAc(b1-2)Man(a1-3)[Neu5Ac(a2-6)Gal(b1-4)GlcNAc(b1-2)Man(a1-6)]Man(b1-4)GlcNAc(b1-4)[Fuc(a1-6)]GlcNAc
How it was run: as §1

[18] = biological target: Neu5Ac(a2-6)Gal(b1-4)GlcNAc(b1-2)Man(a1-6)Man(b1-4)GlcNAc(b1-4)GlcNAc
How it was run: as §1

[19] = biological target: Neu5Ac(a2-6)Gal(b1-4)GlcNAc(b1-2)Man(a1-6)[Gal(b1-4)GlcNAc(b1-2)Man(a1-3)]Man(b1-4)GlcNAc(b1-4)GlcNAc
How it was run: as §1

[20] = biological target: Neu5Ac(a2-6)Gal(b1-4)GlcNAc(b1-2)Man(a1-6)[GlcNAc(b1-2)Man(a1-3)]Man(b1-4)GlcNAc(b1-4)GlcNAc
How it was run: as §1

[21] = biological target: Neu5Ac(a2-6)Gal(b1-4)GlcNAc(b1-2)Man(a1-6)[Man(a1-3)]Man(b1-4)GlcNAc(b1-4)GlcNAc
How it was run: as §1

[22] = biological target: Neu5Ac(a2-6)Gal(b1-4)GlcNAc(b1-2)[Neu5Ac(a2-6)Gal(b1-4)GlcNAc(b1-4)]Man(a1-3)[GlcNAc(b1-4)][Neu5Ac(a2-6)Gal(b1-4)GlcNAc(b1-2)[Neu5Ac(a2-6)Gal(b1-4)GlcNAc(b1-6)]Man(a1-6)]Man(b1-4)GlcNAc(b1-4)GlcNAc
How it was run: as §1

[23] = biological target: Neu5Ac(a2-6)Gal(b1-4)GlcNAc(b1-2)[Neu5Ac(a2-6)Gal(b1-4)GlcNAc(b1-4)]Man(a1-3)[GlcNAc(b1-4)][Neu5Ac(a2-6)Gal(b1-4)GlcNAc(b1-4)Man(a1-6)]Man(b1-4)GlcNAc(b1-4)GlcNAc
How it was run: as §1

[24] = biological target: Neu5Ac(a2-6)Gal(b1-4)GlcNAc(b1-2)[Neu5Ac(a2-6)Gal(b1-4)GlcNAc(b1-6)]Man(a1-6)[Neu5Ac(a2-6)Gal(b1-4)GlcNAc(b1-2)Man(a1-3)][GlcNAc(b1-4)]Man(b1-4)GlcNAc(b1-4)GlcNAc
How it was run: as §1

[25] = biological target: Neu5Ac(a2-6)Gal(b1-4)GlcNAc(b1-3)Gal(b1-3)GlcNAc
How it was run: as §1

[26] = biological target: Neu5Ac(a2-6)Gal(b1-4)GlcNAc(b1-3)Gal(b1-4)GlcNAc
How it was run: as §1

[27] = biological target: Neu5Ac(a2-6)Gal(b1-4)GlcNAc(b1-3)Gal(b1-4)GlcNAc(b1-2)Man(a1-3)[Neu5Ac(a2-6)Gal(b1-4)GlcNAc(b1-3)Gal(b1-4)GlcNAc(b1-2)Man(a1-6)]GalNAc
How it was run: as §1

[28] = biological target: Neu5Ac(a2-6)Gal(b1-4)GlcNAc(b1-3)Gal(b1-4)GlcNAc(b1-3)Gal(b1-4)GlcNAc
How it was run: as §1

[29] = biological target: Neu5Ac(a2-6)Gal(b1-4)GlcNAc(b1-3)Gal(b1-4)GlcNAc(b1-3)Gal(b1-4)GlcNAc(b1-2)Man(a1-3)[Neu5Ac(a2-6)Gal(b1-4)GlcNAc(b1-3)Gal(b1-4)GlcNAc(b1-3)Gal(b1-4)GlcNAc(b1-2)Man(a1-6)]GalNAc
How it was run: as §1

[30] = biological target: Neu5Ac(a2-6)Gal(b1-4)GlcNAc(b1-3)Gal(b1-4)GlcNAc(b1-3)GalNAc
How it was run: as §1

[31] = biological target: Neu5Ac(a2-6)Gal(b1-4)GlcNAc(b1-3)Gal(b1-4)GlcNAc(b1-3)[Neu5Ac(a2-6)Gal(b1-4)GlcNAc(b1-3)Gal(b1-4)GlcNAc(b1-6)]GalNAc
How it was run: as §1

[32] = biological target: Neu5Ac(a2-6)Gal(b1-4)GlcNAc(b1-3)Gal(b1-4)GlcNAc(b1-6)[Gal(b1-3)]GalNAc
How it was run: as §1

[33] = biological target: Neu5Ac(a2-6)Gal(b1-4)GlcNAc(b1-3)Gal(b1-4)[Fuc(a1-3)]GlcNAc(b1-3)Gal(b1-4)[Fuc(a1-3)]GlcNAc
How it was run: as §1

[34] = biological target: Neu5Ac(a2-6)Gal(b1-4)GlcNAc(b1-3)GalNAc
How it was run: as §1

B1: LlpA (Burkholderia cenocepacia) (protein)
chain: MGSSHHHHHHSSGLVPRGSHKILGSNETLSAGNVVYSDNGQYHLAMQTDGNLVVYGPTGAVWQSQTSGSGGNRAVMQGDGNLVIYRADNTAAWSSKTAHPGAFLAVQDDGNVVIYWPRPAWASNTSDPATQQSAESKYLASGSTMSAGQTVTVAQYMLVFQADGNLVLYKNGGNPIWSTGTQGKGATYAVMQSDGNFVIYAGSTALWSTKTNGANGAQLVLQSDGNLVIYAPTAAWSTKFGLVTAPTSTSTSNNGPGSGICVGVCPPHPLNGNPFSPVGVGTTGLGFPTPGYPGAAF
Q: B1 was tested. Which “glycan array binding signal (z-score)” value [1] did it give?
A: The value was -1.66.

Q: And the “glycan array binding signal (z-score)” value (Neu5Ac(a2-3)GalNAc)?
A: Its value is 0.659.

Q: What about the “glycan array binding signal (z-score)” value [2] of the same binder?
A: The value was -0.208.

Q: What about the “glycan array binding signal (z-score)” value [3] of the same binder?
A: The value was 0.457.

Q: And the “glycan array binding signal (z-score)” value [4]?
A: The value was -0.447.

Q: And the “glycan array binding signal (z-score)” value [5]?
A: Its value is 0.959.

Q: And the “glycan array binding signal (z-score)” value [6]?
A: Its value is -0.11.

Q: What about the “glycan array binding signal (z-score)” value (Neu5Ac(a2-6)Gal) of the same binder?
A: The value was -0.305.

Q: What about the “glycan array binding signal (z-score)” value [7] of the same binder?
A: Its value is -0.697.

Q: What about the “glycan array binding signal (z-score)” value (Neu5Ac(a2-6)Gal(b1-4)Glc) of the same binder?
A: The value was -1.35.

Q: What about the “glycan array binding signal (z-score)” value [8] of the same binder?
A: The value was -0.538.

Q: And the “glycan array binding signal (z-score)” value [9]?
A: The value was -1.05.

Q: And the “glycan array binding signal (z-score)” value [10]?
A: The value was -0.786.

Q: And the “glycan array binding signal (z-score)” value [11]?
A: Its value is 0.352.

Q: And the “glycan array binding signal (z-score)” value [12]?
A: The value was 0.706.

Q: And the “glycan array binding signal (z-score)” value [13]?
A: The value was -0.897.

Q: And the “glycan array binding signal (z-score)” value [14]?
A: The value was 0.308.

Q: And the “glycan array binding signal (z-score)” value [15]?
A: The value was 0.

Q: And the “glycan array binding signal (z-score)” value [16]?
A: Its value is 0.281.

Q: What about the “glycan array binding signal (z-score)” value [17] of the same binder?
A: Its value is 1.78.

Q: And the “glycan array binding signal (z-score)” value [18]?
A: Its value is 0.594.

Q: What about the “glycan array binding signal (z-score)” value [19] of the same binder?
A: Its value is -0.3.

Q: And the “glycan array binding signal (z-score)” value [20]?
A: Its value is -0.988.

Q: And the “glycan array binding signal (z-score)” value [21]?
A: The value was 0.702.

Q: And the “glycan array binding signal (z-score)” value [22]?
A: Its value is -0.394.

Q: And the “glycan array binding signal (z-score)” value [23]?
A: The value was 0.06.

Q: What about the “glycan array binding signal (z-score)” value [24] of the same binder?
A: The value was -0.012.

Q: And the “glycan array binding signal (z-score)” value [25]?
A: The value was -0.35.

Q: What about the “glycan array binding signal (z-score)” value [26] of the same binder?
A: Its value is 0.126.

Q: And the “glycan array binding signal (z-score)” value [27]?
A: The value was -0.456.

Q: And the “glycan array binding signal (z-score)” value [28]?
A: Its value is -0.208.

Q: What about the “glycan array binding signal (z-score)” value [29] of the same binder?
A: The value was 1.99.

Q: What about the “glycan array binding signal (z-score)” value [30] of the same binder?
A: The value was -1.03.

Q: What about the “glycan array binding signal (z-score)” value [31] of the same binder?
A: Its value is 0.83.

Q: And the “glycan array binding signal (z-score)” value [32]?
A: Its value is -0.371.

Q: And the “glycan array binding signal (z-score)” value [33]?
A: The value was 0.446.

Q: What about the “glycan array binding signal (z-score)” value [34] of the same binder?
A: Its value is 0.067.
